According to publication PMC7950113:
No constants are given. Whether binding was seen depends on the method and setting. In cells and extracts the contact can be indirect. Here binding means that the protein was enriched with, or labelled near, the bait; the list need not be complete.

Amino acid sequences for entries named in this document (tags omitted). A change or cut given only in a name is not applied to a line headed by its entry. Chains listed by the source or under a name are the forms on record and can include a tag or linker. Residues count along the entry.
FLAG-tagged thyroglobulin, WT (P01266, residues 20-2768): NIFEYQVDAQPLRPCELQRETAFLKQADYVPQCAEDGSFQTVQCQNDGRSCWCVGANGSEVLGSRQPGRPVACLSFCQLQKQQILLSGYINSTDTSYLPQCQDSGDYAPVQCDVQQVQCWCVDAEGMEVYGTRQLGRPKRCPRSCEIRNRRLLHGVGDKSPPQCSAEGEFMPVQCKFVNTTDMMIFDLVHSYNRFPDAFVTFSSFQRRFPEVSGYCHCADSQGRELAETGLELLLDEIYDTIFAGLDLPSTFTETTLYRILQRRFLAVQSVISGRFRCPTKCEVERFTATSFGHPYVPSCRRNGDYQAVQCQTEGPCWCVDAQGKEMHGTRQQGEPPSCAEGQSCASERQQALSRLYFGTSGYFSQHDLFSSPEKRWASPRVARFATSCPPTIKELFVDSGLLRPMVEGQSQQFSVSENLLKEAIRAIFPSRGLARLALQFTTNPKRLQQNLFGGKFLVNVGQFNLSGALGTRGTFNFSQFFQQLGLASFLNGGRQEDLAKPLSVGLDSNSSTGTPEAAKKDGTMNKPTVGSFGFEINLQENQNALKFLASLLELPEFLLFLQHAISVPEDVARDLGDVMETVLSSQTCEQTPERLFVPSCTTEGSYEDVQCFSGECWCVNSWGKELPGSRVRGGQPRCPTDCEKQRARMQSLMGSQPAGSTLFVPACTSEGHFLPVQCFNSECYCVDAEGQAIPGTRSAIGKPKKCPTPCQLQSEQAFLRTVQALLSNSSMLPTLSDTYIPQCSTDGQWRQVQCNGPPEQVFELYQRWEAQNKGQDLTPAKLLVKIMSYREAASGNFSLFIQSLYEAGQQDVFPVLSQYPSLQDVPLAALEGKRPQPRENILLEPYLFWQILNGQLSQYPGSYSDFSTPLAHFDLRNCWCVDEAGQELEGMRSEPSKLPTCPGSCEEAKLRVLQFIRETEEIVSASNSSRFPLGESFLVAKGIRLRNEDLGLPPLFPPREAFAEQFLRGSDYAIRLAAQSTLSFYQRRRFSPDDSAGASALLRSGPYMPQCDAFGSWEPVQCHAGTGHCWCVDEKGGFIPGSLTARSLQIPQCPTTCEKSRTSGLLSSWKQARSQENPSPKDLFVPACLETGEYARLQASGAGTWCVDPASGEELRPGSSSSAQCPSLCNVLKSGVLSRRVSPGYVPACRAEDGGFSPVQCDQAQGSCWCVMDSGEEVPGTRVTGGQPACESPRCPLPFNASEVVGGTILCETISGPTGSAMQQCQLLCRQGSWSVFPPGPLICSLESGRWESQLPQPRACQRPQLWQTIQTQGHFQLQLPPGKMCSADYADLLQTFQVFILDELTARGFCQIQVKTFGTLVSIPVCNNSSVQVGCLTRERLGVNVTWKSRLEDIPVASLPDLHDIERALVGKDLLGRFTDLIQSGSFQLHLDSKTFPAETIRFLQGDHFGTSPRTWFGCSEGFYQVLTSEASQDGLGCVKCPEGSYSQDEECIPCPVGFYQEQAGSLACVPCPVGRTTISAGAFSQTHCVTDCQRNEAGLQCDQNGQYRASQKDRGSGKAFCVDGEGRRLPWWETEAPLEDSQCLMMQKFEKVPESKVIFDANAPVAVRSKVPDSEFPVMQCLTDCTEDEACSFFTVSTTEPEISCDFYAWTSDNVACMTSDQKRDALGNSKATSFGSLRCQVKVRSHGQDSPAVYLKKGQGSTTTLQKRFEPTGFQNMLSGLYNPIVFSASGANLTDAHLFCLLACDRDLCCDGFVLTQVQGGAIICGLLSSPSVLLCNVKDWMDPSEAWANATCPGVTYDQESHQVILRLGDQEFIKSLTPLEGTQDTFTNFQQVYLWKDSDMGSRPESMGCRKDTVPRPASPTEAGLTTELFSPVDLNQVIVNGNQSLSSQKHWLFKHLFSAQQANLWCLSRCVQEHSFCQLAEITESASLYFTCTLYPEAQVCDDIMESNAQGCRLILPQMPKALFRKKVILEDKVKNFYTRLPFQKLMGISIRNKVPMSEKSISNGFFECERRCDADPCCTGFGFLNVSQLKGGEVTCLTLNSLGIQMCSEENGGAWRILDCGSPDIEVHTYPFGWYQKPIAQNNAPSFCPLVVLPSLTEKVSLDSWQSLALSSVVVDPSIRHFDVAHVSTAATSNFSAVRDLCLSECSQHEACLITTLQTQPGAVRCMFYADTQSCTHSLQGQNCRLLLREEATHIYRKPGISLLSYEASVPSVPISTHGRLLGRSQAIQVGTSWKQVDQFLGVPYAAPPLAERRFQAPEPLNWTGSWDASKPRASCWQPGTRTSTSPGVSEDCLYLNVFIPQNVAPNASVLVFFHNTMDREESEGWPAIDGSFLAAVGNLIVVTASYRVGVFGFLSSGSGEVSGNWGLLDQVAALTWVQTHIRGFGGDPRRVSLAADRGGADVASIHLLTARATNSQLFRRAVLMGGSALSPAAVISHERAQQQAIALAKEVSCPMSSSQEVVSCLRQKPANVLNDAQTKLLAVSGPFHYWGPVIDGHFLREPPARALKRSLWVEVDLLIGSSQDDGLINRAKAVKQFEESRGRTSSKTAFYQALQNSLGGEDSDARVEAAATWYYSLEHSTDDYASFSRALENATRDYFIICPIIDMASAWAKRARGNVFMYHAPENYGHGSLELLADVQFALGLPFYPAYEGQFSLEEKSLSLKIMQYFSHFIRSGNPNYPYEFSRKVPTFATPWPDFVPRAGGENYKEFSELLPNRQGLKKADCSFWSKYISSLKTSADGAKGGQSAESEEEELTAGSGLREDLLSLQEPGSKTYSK
FLAG-tagged thyroglobulin C1264R (P01266, form named): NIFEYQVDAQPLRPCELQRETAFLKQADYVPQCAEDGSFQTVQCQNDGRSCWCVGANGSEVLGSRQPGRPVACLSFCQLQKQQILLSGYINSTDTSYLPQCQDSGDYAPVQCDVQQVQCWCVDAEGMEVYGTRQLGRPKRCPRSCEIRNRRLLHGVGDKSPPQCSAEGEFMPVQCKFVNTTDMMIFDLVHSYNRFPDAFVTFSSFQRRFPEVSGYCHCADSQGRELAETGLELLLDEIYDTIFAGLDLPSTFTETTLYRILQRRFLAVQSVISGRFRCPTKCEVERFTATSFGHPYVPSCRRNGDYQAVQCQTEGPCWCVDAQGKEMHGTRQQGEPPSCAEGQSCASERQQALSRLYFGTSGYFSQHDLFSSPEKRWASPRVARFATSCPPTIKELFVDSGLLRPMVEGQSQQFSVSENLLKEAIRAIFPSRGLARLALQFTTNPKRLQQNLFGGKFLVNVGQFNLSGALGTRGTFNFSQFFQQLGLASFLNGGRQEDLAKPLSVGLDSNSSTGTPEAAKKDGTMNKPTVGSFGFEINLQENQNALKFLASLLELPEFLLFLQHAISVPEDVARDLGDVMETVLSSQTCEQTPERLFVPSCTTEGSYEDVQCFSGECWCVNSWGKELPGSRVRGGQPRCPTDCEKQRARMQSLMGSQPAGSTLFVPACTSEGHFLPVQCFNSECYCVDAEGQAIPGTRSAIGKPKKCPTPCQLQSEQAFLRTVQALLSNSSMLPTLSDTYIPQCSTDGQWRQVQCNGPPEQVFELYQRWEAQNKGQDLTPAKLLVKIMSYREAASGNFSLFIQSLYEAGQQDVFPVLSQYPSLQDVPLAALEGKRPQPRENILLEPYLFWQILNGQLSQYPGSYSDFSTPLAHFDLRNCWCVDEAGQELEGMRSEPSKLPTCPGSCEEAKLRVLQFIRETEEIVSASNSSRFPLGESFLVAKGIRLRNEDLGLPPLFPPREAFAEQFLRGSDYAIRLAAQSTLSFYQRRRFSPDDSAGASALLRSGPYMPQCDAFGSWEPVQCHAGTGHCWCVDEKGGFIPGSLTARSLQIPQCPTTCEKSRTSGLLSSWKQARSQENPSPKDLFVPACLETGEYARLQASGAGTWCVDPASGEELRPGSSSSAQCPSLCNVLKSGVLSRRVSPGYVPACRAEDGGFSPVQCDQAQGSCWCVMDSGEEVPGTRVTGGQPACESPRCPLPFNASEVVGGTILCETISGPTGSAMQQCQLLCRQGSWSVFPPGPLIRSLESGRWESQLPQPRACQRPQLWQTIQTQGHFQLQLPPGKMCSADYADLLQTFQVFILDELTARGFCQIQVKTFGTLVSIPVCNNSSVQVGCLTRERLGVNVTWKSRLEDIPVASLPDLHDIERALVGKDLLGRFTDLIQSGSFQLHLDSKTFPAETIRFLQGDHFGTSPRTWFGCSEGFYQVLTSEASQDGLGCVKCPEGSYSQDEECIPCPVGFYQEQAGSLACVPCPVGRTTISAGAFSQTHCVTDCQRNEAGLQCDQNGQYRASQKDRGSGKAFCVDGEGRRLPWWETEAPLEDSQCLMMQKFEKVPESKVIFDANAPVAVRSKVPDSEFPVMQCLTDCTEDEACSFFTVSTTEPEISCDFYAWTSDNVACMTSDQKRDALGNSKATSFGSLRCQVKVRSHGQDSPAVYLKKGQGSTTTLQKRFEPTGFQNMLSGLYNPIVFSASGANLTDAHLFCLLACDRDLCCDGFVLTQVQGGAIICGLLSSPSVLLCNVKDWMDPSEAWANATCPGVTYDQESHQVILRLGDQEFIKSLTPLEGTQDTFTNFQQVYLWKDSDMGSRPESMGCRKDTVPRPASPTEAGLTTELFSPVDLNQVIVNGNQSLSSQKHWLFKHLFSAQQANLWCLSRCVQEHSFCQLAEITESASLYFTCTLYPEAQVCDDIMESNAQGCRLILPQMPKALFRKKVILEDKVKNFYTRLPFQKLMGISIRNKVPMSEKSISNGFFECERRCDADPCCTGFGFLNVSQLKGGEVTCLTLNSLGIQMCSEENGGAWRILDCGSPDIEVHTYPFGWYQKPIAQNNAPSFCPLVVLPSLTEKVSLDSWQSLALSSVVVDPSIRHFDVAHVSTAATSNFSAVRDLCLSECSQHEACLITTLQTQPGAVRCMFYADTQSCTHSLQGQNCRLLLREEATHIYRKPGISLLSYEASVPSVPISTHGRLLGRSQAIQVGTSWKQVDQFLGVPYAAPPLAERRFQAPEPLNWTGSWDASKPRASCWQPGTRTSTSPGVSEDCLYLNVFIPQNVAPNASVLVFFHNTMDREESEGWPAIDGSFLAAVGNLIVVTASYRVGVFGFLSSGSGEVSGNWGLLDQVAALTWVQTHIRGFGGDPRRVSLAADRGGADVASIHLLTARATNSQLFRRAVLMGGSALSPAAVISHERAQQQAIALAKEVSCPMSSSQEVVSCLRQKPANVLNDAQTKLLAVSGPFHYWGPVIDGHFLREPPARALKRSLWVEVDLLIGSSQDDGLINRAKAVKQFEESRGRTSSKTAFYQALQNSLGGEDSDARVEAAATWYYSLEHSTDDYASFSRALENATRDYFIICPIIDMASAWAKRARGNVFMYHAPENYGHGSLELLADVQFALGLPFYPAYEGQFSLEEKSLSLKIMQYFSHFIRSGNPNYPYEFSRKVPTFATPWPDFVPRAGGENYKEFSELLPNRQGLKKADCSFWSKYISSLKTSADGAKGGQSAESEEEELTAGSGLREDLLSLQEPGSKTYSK

Target: FLAG-tagged thyroglobulin, WT (human) (UniProt P01266)
Experiment: affinity purification with mass spectrometry; FLAG-Tg variants transiently expressed in HEK293 cells; cells cross-linked with 0.5 mM DSP, RIPA lysate, M2 anti-flag agarose or G1 Anti-DYKDDDDK resin overnight at 4 °C, four RIPA washes; TMT sixplex LC-MS/MS against mock AP (untagged Tg, EGFP or tdTomato)

Binder | binding
oligosaccharyl transferase complex catalytic subunit A (protein, UniProt P46977 1-705) MTKFGFLRLSYEKQDTLLKLLILSMAAVLSFSTRLFAVLRFESVIHEFDPYFNYRTTRFLAEEGFYKFHNWFDDRAWYPLGRIIGGTIYPGLMITSAAIYHVLHFFHITIDIRNVCVFLAPLFSSFTTIVTYHLTKELKDAGAGLLAAAMIAVVPGYISRSVAGSYDNEGIAIFCMLLTYYMWIKAVKTGSICWAAKCALAYFYMVSSWGGYVFLINLIPLHVLVLMLTGRFSHRIYVAYCTVYCLGTILSMQISFVGFQPVLSSEHMAAFGVFGLCQIHAFVDYLRSKLNPQQFEVLFRSVISLVGFVLLTVGALLMLTGKISPWTGRFYSLLDPSYAKNNIPIIASVSEHQPTTWSSYYFDLQLLVFMFPVGLYYCFSNLSDARIFIIMYGVTSMYFSAVMVRLMLVLAPVMCILSGIGVSQVLSTYMKNLDISRPDKKSKKQQDSTYPIKNEVASGMILVMAFFLITYTFHSTWVTSEAYSSPSIVLSARGGDGSRIIFDDFREAYYWLRHNTPEDAKVMSWWDYGYQITAMANRTILVDNNTWNNTHISRVGQAMASTEEKAYEIMRELDVSYVLVIFGGLTGYSSDDINKFLWMVRIGGSTDTGKHIKENDYYTPTGEFRVDREGSPVLLNCLMYKMCYYRFGQVYTEAKRPPGFDRVRNAEIGNKDFELDVLEEAYTTEHWLVRIYKVKDLDNRGLSRT | binds
DnaJ heat shock protein family member C3 (protein, UniProt Q13217 32-504) GVNADVEKHLELGKKLLAAGQLADALSQFHAAVDGDPDNYIAYYRRATVFLAMGKSKAALPDLTKVIQLKMDFTAARLQRGHLLLKQGKLDEAEDDFKKVLKSNPSENEEKEAQSQLIKSDEMQRLRSQALNAFGSGDYTAAIAFLDKILEVCVWDAELRELRAECFIKEGEPRKAISDLKAASKLKNDNTEAFYKISTLYYQLGDHELSLSEVRECLKLDQDHKRCFAHYKQVKKLNKLIESAEELIRDGRYTDATSKYESVMKTEPSIAEYTVRSKERICHCFSKDEKPVEAIRVCSEVLQMEPDNVNALKDRAEAYLIEEMYDEAIQDYETAQEHNENDQQIREGLEKAQRLLKQSQKRDYYKILGVKRNAKKQEIIKAYRKLALQWHPDNFQNEEEKKKAEKKFIDIAAAKEVLSDPEMRKKFDDGEDPLDAESQQGGGGNPFHRSWNSWQGFNPFSSGGPFRFKFHFN | binds
HYOU1 (protein, UniProt Q9Y4L1 33-999) LAVMSVDLGSESMKVAIVKPGVPMEIVLNKESRRKTPVIVTLKENERFFGDSAASMAIKNPKATLRYFQHLLGKQADNPHVALYQARFPEHELTFDPQRQTVHFQISSQLQFSPEEVLGMVLNYSRSLAEDFAEQPIKDAVITVPVFFNQAERRAVLQAARMAGLKVLQLINDNTATALSYGVFRRKDINTTAQNIMFYDMGSGSTVCTIVTYQMVKTKEAGMQPQLQIRGVGFDRTLGGLEMELRLRERLAGLFNEQRKGQRAKDVRENPRAMAKLLREANRLKTVLSANADHMAQIEGLMDDVDFKAKVTRVEFEELCADLFERVPGPVQQALQSAEMSLDEIEQVILVGGATRVPRVQEVLLKAVGKEELGKNINADEAAAMGAVYQAAALSKAFKVKPFVVRDAVVYPILVEFTREVEEEPGIHSLKHNKRVLFSRMGPYPQRKVITFNRYSHDFNFHINYGDLGFLGPEDLRVFGSQNLTTVKLKGVGDSFKKYPDYESKGIKAHFNLDESGVLSLDRVESVFETLVEDSAEEESTLTKLGNTISSLFGGGTTPDAKENGTDTVQEEEESPAEGSKDEPGEQVELKEEAEAPVEDGSQPPPPEPKGDATPEGEKATEKENGDKSEAQKPSEKAEAGPEGVAPAPEGEKKQKPARKRRMVEEIGVELVVLDLPDLPEDKLAQSVQKLQDLTLRDLEKQEREKAANSLEAFIFETQDKLYQPEYQEVSTEEQREEISGKLSAASTWLEDEGVGATTVMLKEKLAELRKLCQGLFFRVEERKKWPERLSALDNLLNHSSMFLKGARLIPEMDQIFTEVEMTTLEKVINETWAWKNATLAEQAKLPATEKPVLLSKDIEAKMMALDREVQYLLNKAKFTKPRPRPKDKNGTRAEPPLNASASDQGEKVIPPAGQTEDAEPISEPEKVETGSEPGDTEPLELGGPGAEPEQKEQSTGQKRPLKNDEL | binds
protein disulfide isomerase family A member 10 (protein, UniProt Q9BS26 30-406) EITSLDTENIDEILNNADVALVNFYADWCRFSQMLHPIFEEASDVIKEEFPNENQVVFARVDCDQHSDIAQRYRISKYPTLKLFRNGMMMKREYRGQRSVKALADYIRQQKSDPIQEIRDLAEITTLDRSKRNIIGYFEQKDSDNYRVFERVANILHDDCAFLSAFGDVSKPERYSGDNIIYKPPGHSAPDMVYLGAMTNFDVTYNWIQDKCVPLVREITFENGEELTEEGLPFLILFHMKEDTESLEIFQNEVARQLISEKGTINFLHADCDKFRHPLLHIQKTPADCPVIAIDSFRHMYVFGDFKDVLIPGKLKQFVFDLHSGKLHREFHHGPDPTDTAPGEQAQDVASSPPESSFQKLAPSEYRYTLLRDRDEL | binds

Target: FLAG-tagged thyroglobulin C1264R (human) (UniProt P01266)
Experiment: as above

Binder | binding
ER membrane complex subunit EMC1 (protein, UniProt Q8N766 23-993) YEDQVGKFDWRQQYVGKVKFASLEFSPGSKKLVVATEKNVIAALNSRTGEILWRHVDKGTAEGAVDAMLLHGQDVITVSNGGRIMRSWETNIGGLNWEITLDSGSFQALGLVGLQESVRYIAVLKKTTLALHHLSSGHLKWVEHLPESDSIHYQMVYSYGSGVVWALGVVPFSHVNIVKFNVEDGEIVQQVRVSTPWLQHLSGACGVVDEAVLVCPDPSSRSLQTLALETEWELRQIPLQSLDLEFGSGFQPRVLPTQPNPVDASRAQFFLHLSPSHYALLQYHYGTLSLLKNFPQTALVSFATTGEKTVAAVMACRNEVQKSSSSEDGSMGSFSEKSSSKDSLACFNQTYTINLYLVETGRRLLDTTITFSLEQSGTRPERLYIQVFLKKDDSVGYRALVQTEDHLLLFLQQLAGKVVLWSREESLAEVVCLEMVDLPLTGAQAELEGEFGKKADGLLGMFLKRLSSQLILLQAWTSHLWKMFYDARKPRSQIKNEINIDTLARDEFNLQKMMVMVTASGKLFGIESSSGTILWKQYLPNVKPDSSFKLMVQRTTAHFPHPPQCTLLVKDKESGMSSLYVFNPIFGKWSQVAPPVLKRPILQSLLLPVMDQDYAKVLLLIDDEYKVTAFPATRNVLRQLHELAPSIFFYLVDAEQGRLCGYRLRKDLTTELSWELTIPPEVQRIVKVKGKRSSEHVHSQGRVMGDRSVLYKSLNPNLLAVVTESTDAHHERTFIGIFLIDGVTGRIIHSSVQKKAKGPVHIVHSENWVVYQYWNTKARRNEFTVLELYEGTEQYNATAFSSLDRPQLPQVLQQSYIFPSSISAMEATITERGITSRHLLIGLPSGAILSLPKALLDPRRPEIPTEQSREENLIPYSPDVQIHAERFINYNQTVSRMRGIYTAPSGLESTCLVVAYGLDIYQTRVYPSKQFDVLKDDYDYVLISSVLFGLVFATMITKRLAQVKLLNRAWR | binds
ER-localized peroxidase PXDN (protein, UniProt Q92626 27-1479) VVAQKPGAGCPSRCLCFRTTVRCMHLLLEAVPAVAPQTSILDLRFNRIREIQPGAFRRLRNLNTLLLNNNQIKRIPSGAFEDLENLKYLYLYKNEIQSIDRQAFKGLASLEQLYLHFNQIETLDPDSFQHLPKLERLFLHNNRITHLVPGTFNHLESMKRLRLDSNTLHCDCEILWLADLLKTYAESGNAQAAAICEYPRRIQGRSVATITPEELNCERPRITSEPQDADVTSGNTVYFTCRAEGNPKPEIIWLRNNNELSMKTDSRLNLLDDGTLMIQNTQETDQGIYQCMAKNVAGEVKTQEVTLRYFGSPARPTFVIQPQNTEVLVGESVTLECSATGHPPPRISWTRGDRTPLPVDPRVNITPSGGLYIQNVVQGDSGEYACSATNNIDSVHATAFIIVQALPQFTVTPQDRVVIEGQTVDFQCEAKGNPPPVIAWTKGGSQLSVDRRHLVLSSGTLRISGVALHDQGQYECQAVNIIGSQKVVAHLTVQPRVTPVFASIPSDTTVEVGANVQLPCSSQGEPEPAITWNKDGVQVTESGKFHISPEGFLTINDVGPADAGRYECVARNTIGSASVSMVLSVNVPDVSRNGDPFVATSIVEAIATVDRAINSTRTHLFDSRPRSPNDLLALFRYPRDPYTVEQARAGEIFERTLQLIQEHVQHGLMVDLNGTSYHYNDLVSPQYLNLIANLSGCTAHRRVNNCSDMCFHQKYRTHDGTCNNLQHPMWGASLTAFERLLKSVYENGFNTPRGINPHRLYNGHALPMPRLVSTTLIGTETVTPDEQFTHMLMQWGQFLDHDLDSTVVALSQARFSDGQHCSNVCSNDPPCFSVMIPPNDSRARSGARCMFFVRSSPVCGSGMTSLLMNSVYPREQINQLTSYIDASNVYGSTEHEARSIRDLASHRGLLRQGIVQRSGKPLLPFATGPPTECMRDENESPIPCFLAGDHRANEQLGLTSMHTLWFREHNRIATELLKLNPHWDGDTIYYETRKIVGAEIQHITYQHWLPKILGEVGMRTLGEYHGYDPGINAGIFNAFATAAFRFGHTLVNPLLYRLDENFQPIAQDHLPLHKAFFSPFRIVNEGGIDPLLRGLFGVAGKMRVPSQLLNTELTERLFSMAHTVALDLAAINIQRGRDHGIPPYHDYRVYCNLSAAHTFEDLKNEIKNPEIREKLKRLYGSTLNIDLFPALVVEDLVPGSRLGPTLMCLLSTQFKRLRDGDRLWYENPGVFSPAQLTQIKQTSLARILCDNADNITRVQSDVFRVAEFPHGYGSCDEIPRVDLRVWQDCCEDCRTRGQFNAFSYHFRGRRSLEFSYQEDKPTKKTRPRKIPSVGRQGEHLSNSTSAFSTRSDASGTNDFREFVLEMQKTITDLRTQIKKLESRLSTTECVDAGGESHANNTKWKKDACTICECKDGQVTCFVEACPPATCAVPVNIPGACCPVCLQKRAEEKP | binds
ER lipid raft-associated protein ERLIN1 (protein, UniProt O75477 1-348) MNMTQARVLVAAVVGLVAVLLYASIHKIEEGHLAVYYRGGALLTSPSGPGYHIMLPFITTFRSVQTTLQTDEVKNVPCGTSGGVMIYIDRIEVVNMLAPYAVFDIVRNYTADYDKTLIFNKIHHELNQFCSAHTLQEVYIELFDQIDENLKQALQKDLNLMAPGLTIQAVRVTKPKIPEAIRRNFELMEAEKTKLLIAAQKQKVVEKEAETERKKAVIEAEKIAQVAKIRFQQKVMEKETEKRISEIEDAAFLAREKAKADAEYYAAHKYATSNKHKLTPEYLELKKYQAIASNSKIYFGSNIPNMFVDSSCALKYSDIRTGRESSLPSKEALEPSGENVIQNKESTG | binds
glycan-modifying enzyme B3GALT6 (protein, UniProt Q96L58 1-329) MKLLRRAWRRRAALGLGTLALCGAALLYLARCAAEPGDPRAMSGRSPPPPAPARAAAFLAVLVASAPRAAERRSVIRSTWLARRGAPGDVWARFAVGTAGLGAEERRALEREQARHGDLLLLPALRDAYENLTAKVLAMLAWLDEHVAFEFVLKADDDSFARLDALLAELRAREPARRRRLYWGFFSGRGRVKPGGRWREAAWQLCDYYLPYALGGGYVLSADLVHYLRLSRDYLRAWHSEDVSLGAWLAPVDVQREHDPRFDTEYRSRGCSNQYLVTHKQSLEDMLEKHATLAREGRLCKREVQLRLSYVYDWSAPPSQCCQRREGIP | binds
